No constants are given. Whether binding was seen depends on the method and setting. Binding seen in cells or lysates may run through a third protein. Some binding calls cover weakened binding; strength is not graded here.
How the values were obtained:
[1] = target: myc-tagged EMCV nonstructural protein 3A (EMCV, strain mengovirus) (UniProt P12296); test: co-IP; myc-tagged 3A co-expressed with HA-PI4KA in Huh7-Lunet/T7 cells; IP with mouse monoclonal or rabbit polyclonal anti-myc antibody and protein A-sepharose; western blot against the myc and HA tags
[2] = target: myc-tagged EMCV nonstructural protein 2C (EMCV, strain mengovirus) (UniProt P12296); test: co-IP; myc-tagged viral proteins co-expressed with HA-PI4KA in Huh7-Lunet/T7 cells, [35S] methionine/cysteine labelling, lysis in 50 mM Tris-Cl pH 7.5, 150 mM NaCl, 1% Nonidet P-40; IP with anti-c-myc rabbit polyclonal antibody and protein G-sepharose at 4°C; SDS-PAGE and autoradiography
[3] = target: myc-tagged EMCV nonstructural protein 3A (EMCV, strain mengovirus) (UniProt P12296); test: as above
[4] = target: myc-tagged EMCV nonstructural protein 3C (EMCV, strain mengovirus) (UniProt P12296); test: as above

Chains of the proteins cited; added tags and fusions are not shown. A line that says so, or that is headed by a name, gives the form on record, which may keep a tag or linker. Residues count along the entry.
myc-tagged EMCV nonstructural protein 2C (P12296, residues 1196-1520): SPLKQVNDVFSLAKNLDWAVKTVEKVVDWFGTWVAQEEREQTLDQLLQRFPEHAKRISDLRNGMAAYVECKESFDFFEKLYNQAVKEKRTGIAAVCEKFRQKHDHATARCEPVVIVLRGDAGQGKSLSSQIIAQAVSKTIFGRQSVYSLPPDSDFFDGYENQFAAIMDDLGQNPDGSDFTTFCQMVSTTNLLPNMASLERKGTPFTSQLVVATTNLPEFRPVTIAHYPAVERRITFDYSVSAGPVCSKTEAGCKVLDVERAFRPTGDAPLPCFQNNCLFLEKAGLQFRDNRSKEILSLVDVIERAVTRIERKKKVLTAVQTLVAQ
myc-tagged EMCV nonstructural protein 3A (P12296, residues 1521-1608): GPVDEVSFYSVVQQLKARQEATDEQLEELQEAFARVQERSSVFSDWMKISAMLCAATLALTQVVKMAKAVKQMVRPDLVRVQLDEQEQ
myc-tagged EMCV nonstructural protein 3C (P12296, residues 1629-1833): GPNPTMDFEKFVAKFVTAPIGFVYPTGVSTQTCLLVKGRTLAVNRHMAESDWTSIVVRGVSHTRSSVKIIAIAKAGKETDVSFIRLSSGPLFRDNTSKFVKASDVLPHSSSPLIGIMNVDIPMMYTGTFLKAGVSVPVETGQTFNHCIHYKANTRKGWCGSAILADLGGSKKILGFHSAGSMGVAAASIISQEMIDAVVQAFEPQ

Substance: HA-PI4KA (phosphatidylinositol 4-kinase III alpha) (from UniProt P42356 1-2102) (enzyme)
- binding [1]: binds
- binding [2]: no binding
- binding [3]: binds
- binding [4]: no binding

Reference: paper PMC4583462
